Among all 24,000 compounds or so, about 50 (0.2%) were called active. This list was built around the results that the source calls inconclusive (neither active nor inactive); the mix of calls is not that of the screen.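 The calls were made as follows: active = inhibition above 50%; inconclusive = compound itself fluorescent, judged against control cell fluorescence; inactive = the rest.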
Molecular target: Integrin alpha-4 (Homo sapiens) (UniProt P13612)
Assay: blockers of LDV-FITC ligand binding on VLA-4 – Jurkat cells, Mn2+ activated, primary screen (AID 529);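 as to inhibition: 0% = Mn2+ stimulated cells lacking compound and 100% = ligand binding without Mn2+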
Details: LDV-FITC binding with Mn2+, flow cytometry; stronger effect = higher value, screened at 10 µM (by protocol), 100% = Mn2+-driven binding gain fully reversed unless noted

Chains of the proteins cited; added tags and fusions are not shown.
UniProt P13612, whole entry, looked up: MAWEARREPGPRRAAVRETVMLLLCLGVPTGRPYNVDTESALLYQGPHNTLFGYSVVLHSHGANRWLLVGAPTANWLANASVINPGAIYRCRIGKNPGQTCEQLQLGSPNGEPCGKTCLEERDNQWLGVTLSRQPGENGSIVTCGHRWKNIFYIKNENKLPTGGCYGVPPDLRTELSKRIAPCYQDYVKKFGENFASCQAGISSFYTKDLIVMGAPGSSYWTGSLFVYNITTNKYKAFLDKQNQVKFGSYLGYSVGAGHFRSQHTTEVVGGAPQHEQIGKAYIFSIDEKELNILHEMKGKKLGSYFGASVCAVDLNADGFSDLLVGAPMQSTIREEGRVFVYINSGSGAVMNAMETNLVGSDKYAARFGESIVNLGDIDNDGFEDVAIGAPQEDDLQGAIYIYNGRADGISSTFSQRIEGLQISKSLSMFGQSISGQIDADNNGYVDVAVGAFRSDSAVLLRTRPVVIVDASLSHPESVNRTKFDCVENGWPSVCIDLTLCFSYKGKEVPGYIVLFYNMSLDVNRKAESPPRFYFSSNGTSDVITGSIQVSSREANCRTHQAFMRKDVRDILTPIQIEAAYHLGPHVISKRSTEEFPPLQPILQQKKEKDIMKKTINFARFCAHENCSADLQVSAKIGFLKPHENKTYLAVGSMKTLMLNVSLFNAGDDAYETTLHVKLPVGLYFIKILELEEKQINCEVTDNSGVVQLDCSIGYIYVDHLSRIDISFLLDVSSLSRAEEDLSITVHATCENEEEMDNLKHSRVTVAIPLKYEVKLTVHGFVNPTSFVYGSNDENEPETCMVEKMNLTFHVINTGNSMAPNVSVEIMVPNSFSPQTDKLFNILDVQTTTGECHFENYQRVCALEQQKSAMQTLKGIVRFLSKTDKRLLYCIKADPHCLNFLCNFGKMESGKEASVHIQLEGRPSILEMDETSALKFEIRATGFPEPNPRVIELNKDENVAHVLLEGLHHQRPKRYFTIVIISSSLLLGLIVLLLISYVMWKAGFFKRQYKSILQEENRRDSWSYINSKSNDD

Structure (SMILES)	inhibition
CC(C)C1N=C2c3ccccc3N=C(SCc3cc(=O)n4cc(Cl)ccc4n3)N2C1=O (stereo not given)	inconclusive
CCC1CCc2c(sc3ncnc(N4CCOCC4)c23)C1 (stereo not given)	inconclusive
CC(C)OC(=O)c1nnc(Cc2ccc(Cl)cc2)o1	inconclusive
CC(C)(C)c1ccc2c(c1)N(CC(=O)O)C(=O)CO2	inconclusive
COc1cc(OC)c(NC(=O)CCc2nc(-c3ccc(C)cc3)no2)cc1Cl	inconclusive
CCN(CC)CCNC(=O)c1nn(-c2ccc(C)cc2)c(=O)c2c1c1ccccc1n2C	inactive: 11%
CC(=O)c1ccc(OCC(O)CN2CCN(c3ccccn3)CC2)cc1 (stereo not given)	inactive: -24%
CCOc1ccc(N(CC(=O)Nc2cccc(Cl)c2)S(=O)(=O)c2c(C)noc2C)cc1	inconclusive
O=C(c1cnc(N2CCN(c3ncccn3)CC2)c2ccccc12)N1CCN(c2ccccn2)CC1	inconclusive
Cc1cccc(NC(=O)CN2CCCN(S(=O)(=O)c3ccc(Br)s3)CC2)c1	inconclusive
COc1cc(C(=O)Nc2cccc(-c3nc4cc(C)ccc4o3)c2)cc(OC)c1OC	inconclusive
O=C(CCCn1c(=S)[nH]c2ccccc2c1=O)N1CCCCC1	inconclusive
O=C(c1cccnc1)N1CCN(C(=O)c2ccccc2F)CC1	inconclusive
CC1CC(C)CN(C(=O)Cn2c(=O)n(CCCCC(=O)NCc3ccco3)c(=O)c3ccccc32)C1 (stereo not given)	inactive: -3%
O=C(CN1C(=O)C2C3C=CC(C3)C2C1=O)N1CCc2ccccc2C1 (stereo not given)	inconclusive
CCOC(=O)N1CCC(NC(=O)c2cc(S(=O)(=O)N3CCC4(CC3)OCCO4)ccc2F)CC1	inconclusive
O=C(NCc1ccccn1)C(C(=O)c1ccc(F)cc1)n1ccccc1=O (stereo not given)	inactive: -4%
O=C(CN1C(=O)C2(OCCO2)c2ccccc21)c1ccc(Br)cc1	inconclusive
O=C(NCc1cccnc1)c1cc(-c2ccco2)on1	inconclusive
CC1CCC(NC(=O)c2ccc(N3CCCC3=O)cc2)CC1 (stereo not given)	inconclusive
CCOC(=O)N1CCN(C(=O)C2CCN(c3ncnc4c3sc3cccc(F)c34)CC2)CC1	inconclusive
Nc1nc2c(s1)CCc1c-2cnn1-c1ccccc1	inconclusive
COc1ccc(-c2noc(CCC(=O)N3CCN(Cc4ccccc4)CC3)n2)cc1	inconclusive
Cc1cccc(N=c2oc3cc(O)ccc3cc2C(N)=O)c1	inconclusive

Structure (SMILES)	inhibition
COc1ccc(CCNC(=O)C2CCC(CNc3c(N4CCCC4)c(=O)c3=O)CC2)cc1OC (stereo not given)	inactive: 10%
CCc1c(-c2ccccc2)nc2nc(C)c(C)nn12	inconclusive
COCCNC(=O)c1cn(C)c2ccc(S(=O)(=O)N(C)C3CCCCC3)cc2c1=O	inconclusive
COc1ccc(Br)cc1C1CC(=O)N2CN(Cc3ccccc3)CSC2=C1C#N (stereo not given)	inconclusive
CC(=O)c1ccc(N2CCN(C(=O)c3ccc4c(=O)n(-c5ccccc5)c(=O)[nH]c4c3)CC2)cc1	inconclusive
COc1ccc(CCNC(=O)Cn2c(-c3nonc3N)nc3ccccc32)cc1OC	inconclusive
CCCCCn1c(SCC#N)nc2cc(C(=O)NC3CCCCC3)ccc2c1=O	inconclusive
COCCN1CSC(=S)N(Cc2ccco2)C1	inconclusive
COc1ccc(Cn2c(C)nc3c(c2=O)c2nc4ccccc4nc2n3Cc2ccco2)cc1	inactive: -16%
CCOC(=O)c1ccc(NC(=O)CS(=O)(=O)c2cn(CC)c3ccccc23)cc1	inconclusive
O=C(O)CCC(=O)CCC(=O)c1ccccc1	inconclusive
CCC(=O)N(c1ccc(F)cc1)C1C=CS(=O)(=O)C1 (stereo not given)	inconclusive
N#Cc1nc(COc2ccccc2F)oc1NCc1ccc(F)cc1	inactive: -29%
Cc1cccc(C2CC(c3ccccc3)Nc3nc(N)nn32)c1 (stereo not given)	inconclusive
C#CCSc1nnc(-c2ccccc2)c(=O)[nH]1	inconclusive
CCN1C(=O)c2cccc3c(S(=O)(=O)NCCCN4CCOCC4)ccc1c23	inconclusive
Cc1nc2c(ccc3nc(NC(=O)c4ccc5c(c4)OCCO5)sc32)s1	inconclusive
O=C(Nc1cccc(NC(=O)c2ccc(Br)o2)n1)c1ccc(Br)o1	inconclusive
CCOc1ccc(Cc2nn[nH]n2)cc1	inconclusive
CC(C)CN(CC(C)C)S(=O)(=O)N1CCC(C(=O)NC2CCCCCCC2)CC1	inactive: -1%
O=C1CN(C(=O)c2ccc(Br)o2)C(c2ccc(F)cc2)c2cc(Cl)ccc2N1 (stereo not given)	inconclusive
CCCCC(=O)NC(Nc1nc(C2CC2)cs1)(C(=O)OCC)C(F)(F)F (stereo not given)	inactive: -9%
CNC(=O)C1C2C=CC3(O2)C1C(=O)N(C1CC1)C3C(=O)NCc1ccc(OC)cc1 (stereo not given)	inactive: -14%
CC(C)OCCCNS(=O)(=O)c1ccc2c(c1)oc(=O)n2C	inconclusive

An excerpt of these results, with bars between the fields.
Structure (SMILES) | inhibition
O=C(Nc1cccc(NC(=O)c2ccc(Br)o2)n1)c1ccc(Br)o1 | inconclusive
CCOc1ccc(Cc2nn[nH]n2)cc1 | inconclusive
CC(C)CN(CC(C)C)S(=O)(=O)N1CCC(C(=O)NC2CCCCCCC2)CC1 | inactive: -1%
O=C1CN(C(=O)c2ccc(Br)o2)C(c2ccc(F)cc2)c2cc(Cl)ccc2N1 (stereo not given) | inconclusive
CCCCC(=O)NC(Nc1nc(C2CC2)cs1)(C(=O)OCC)C(F)(F)F (stereo not given) | inactive: -9%

(continued)

Structure (SMILES)	inhibition
COc1cccc(OC)c1C(=O)N1CCN=C1SCc1cccnc1	inconclusive
CSCCC(C(=O)Nc1ccc2c(c1)OCO2)N1C(=O)c2ccccc2C1=O (stereo not given)	inactive: -9.5%
CCN1CCN(CCNC(=O)CS(=O)(=O)Cc2nc(-c3ccc(C)cc3)oc2C)CC1	inconclusive
N#C/C=C\Oc1ccc(Cl)cc1N	inconclusive
COc1cccc(N2CCN(c3ncnc4c3[nH]c3ccc(F)cc34)CC2C)c1 (stereo not given)	active: 95%
COc1ccc(-c2nnc(Nc3nc4c(OC)cccc4s3)o2)cc1	active: 65.5%
Cc1nn(C)c(C)c1S(=O)(=O)Nc1ccc2c(c1)OCO2	inconclusive
Cc1nc(NC2=NCN(CC3CCCO3)CN2)nc2ccccc12 (stereo not given)	inconclusive
COc1ccccc1N1CC(O)=C(c2nc3ccccc3c(=O)[nH]2)C1=N	inconclusive
CCOC(=O)Cn1c(=N)n(Cc2ccccc2)c2ccccc21	inconclusive
COc1ccc(CCNC(=O)CSc2nnc(CNC(=O)c3ccccc3F)o2)cc1OC	inactive: -4%
Cc1ccc(-c2noc(CCC(=O)N(C)c3ccccc3C)n2)cc1	inconclusive
COC(=O)c1ccc(C(=O)OC)c(NC(=O)c2oc(C)nc2C)c1	inactive: -4%
O=C(Nc1ccc2c(c1)OCO2)c1cnc2n(c1=O)CCS2	inconclusive
Cc1ccc(Cl)cc1N1CCN(C(=O)CCS(=O)(=O)c2cccc3nonc23)CC1	inconclusive
COc1cccc2cc(-c3nc(-c4cccs4)cs3)c(=O)oc12	inconclusive
COc1ccc(N2CCN(C(c3cccs3)c3nnnn3C3CCCC3)CC2)cc1 (stereo not given)	inconclusive
N=c1c(S(=O)(=O)c2ccc(Cl)cc2)cc2c(=O)n3ccccc3nc2n1CCN1CCOCC1	inconclusive
COc1cccc(CNC(=O)CCNS(=O)(=O)c2cccs2)c1	inconclusive
CCOC(=O)c1cccc(-n2c(C)nc3ccccc3c2=O)c1	inconclusive
Cc1ccc(CC(=O)N2CCC(c3nc4c(nnn4Cc4ccccc4)c(=O)[nH]3)CC2)cc1	inconclusive
O=C(CCCNS(=O)(=O)c1cccs1)N1CCN(c2cccc(Cl)c2)CC1	inconclusive
Cn1c(=O)oc2cc(S(=O)(=O)NCCC(=O)NCCc3ccc(Cl)cc3)ccc21	inconclusive
COc1ccc(OC)c2[nH]c(=O)c(CCNS(=O)(=O)c3ccc(Cl)cc3)cc12	inconclusive

Structure (SMILES)	inhibition
Cn1c(C(=O)N2CCCC(C(=O)NCc3ccc4c(c3)OCO4)C2)cc2sccc21 (stereo not given)	inconclusive
O=C(CN1CCN(c2ccccn2)CC1)Nc1cc(C(F)(F)F)ccc1Cl	inactive: 6%
O=C(O)CSCc1cnn(-c2ccccc2)c1-n1cccc1	inconclusive
Cc1ccc2nc3ccc(N4CCN(C)CC4)nn3c(=O)c2c1	inconclusive
CCCn1nc(NC(=O)c2cccs2)c2cc3cc(OC)ccc3nc21	inconclusive
Cc1ccc(NC(=O)C2(N(C(=O)Cn3nnnc3N)c3ccc(C)cc3)CCCCC2)cc1	inconclusive
CCOC(=O)N1CCc2c(sc3c2C(=O)NC(c2ccccc2)N3)C1 (stereo not given)	inconclusive
Cc1ccc2c(c1)-c1c(cnn1CC(=O)N1CCCN(Cc3ccccc3F)C1)CO2	inconclusive
O=c1nc2c(-c3ccccc3F)n[nH]n2c2ccccc12	inconclusive
Cc1nc2c(-c3ccc(F)cc3)c(C)nn2c(C)c1CCC(=O)N1CCN(c2ccccn2)CC1	inconclusive
COc1ccc(-n2nc3c(c2NC(=O)c2cc4ccccc4oc2=O)CS(=O)(=O)C3)cc1	inactive: 12%
CC(NC(=O)CN1CCN(Cc2ccc(Cl)cc2)C1=O)c1ccc2c(c1)OCCO2 (stereo not given)	inactive: 4% [stronger effect = higher value, 100% = Mn2+-driven binding gain fully reversed, screened at 10 µM (by protocol)]
COc1cccc2sc(Nc3nc(C)c(C(C)=O)s3)nc12	inconclusive
COC(=O)C(C)Sc1ccc2nnc(-c3ccc(F)cc3)n2n1 (stereo not given)	inconclusive
Cn1nc(-c2ccc(Cl)cc2)c2cc(C(=O)N3CCOCC3)sc21	inconclusive
COc1ccc(-c2cc(C(F)(F)F)nc(NC3CCCC3)n2)cc1OC	inactive: -1%
C[C@@H]1CCC[C@H](C)N1NC(=O)c1ccc(Cl)c(S(N)(=O)=O)c1	inactive: -29%
O=C(NCc1ccco1)c1c[nH]c2ccc(S(=O)(=O)N3CCOCC3)cc2c1=O	inconclusive
Cn1c(Cn2c(=O)sc3ccccc32)nnc1SCC(=O)N1CCc2ccccc21	inconclusive
Cc1cc(NC(=O)c2cc3ccccc3o2)cc(C)c1OCC(=O)N1CCOCC1	inconclusive
COCc1cc(C)nc(N2CCOCC2)c1C#N	inconclusive
CC(C(=O)N1CCCc2c1c(=O)oc1ccc(O)cc21)N1CCc2ccccc2C1 (stereo not given)	inconclusive
CC1CCN(C(=O)C2CCN(C(=O)c3cc4sccc4n3Cc3ccc(F)cc3)CC2)CC1	inconclusive

From PubChem BioAssay AID529 (NMMLSC, 2006)
